Reference: PubChem BioAssay AID743448 (Peter MacCallum Cancer Centre, 2014)
This is an unselected part of the 106 reagents, under one of the conditions tested. 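Calls are per line and drug panel including etoposide, not vorinostat-specific; gene picks needed hits in two or more extra lines with vorinostat versus etoposide.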

Test: 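Third-round triage of 106 confirmed candidates in four colon lines under two drugs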 (follow-up of hits)
System: four human colon cancer cell lines: HCT116-VR (vorinostat-resistant HCT116 derivative), SW480, SW620 and LIM1215
Reagents: siRNA pool against human genes, 40 nM siRNA pool
Timing: drug added two days after transfection, read one day later
Challenge: vorinostat 2.5 µM on one half of each plate, etoposide 5 µM on the other half
Cell line and drug panel: SW480 cells with etoposide
Detection: 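Caspase 3/7 activity by luminescence and live-cell viability by fluorescence, each given as a ratio to mock-transfected wells and as a robust z-score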
Reading the numbers: caspase ratio to mock: higher = more caspase activity than mock; viability ratio to mock: higher = more live cells than mock; caspase robust z-score: higher = more caspase activity, more apoptosis; viability robust z-score: higher = more live cells
Active means: 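a row is a hit if caspase relative to mock is 1.6 or above or viability relative to mock is 0.75 or below; wells dying heavily without drug are not called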
Meaning of the calls: active = caspase or viability hit in this panel; inactive = no change, or unhealthy well

gene,caspase ratio to mock,viability ratio to mock,caspase robust z-score,viability robust z-score,outcome
CNOT1 (GeneID 23019),4.41,0.69,1.85,-1.17,inactive
PUF60 (GeneID 22827),4.29,1.01,1.68,0.94,active
THAP1 (GeneID 55145),1.08,1.04,-0.74,1.08,inactive
NPEPPS (GeneID 9520),1.25,0.72,-0.61,-1.02,active
FANCA (GeneID 2175),2.41,1,0.25,0.84,active
MTF2 (GeneID 22823),1.77,0.78,-0.2,-0.55,active
TFAP2D (GeneID 83741),3.04,1.13,0.74,1.73,active
EIF3I (GeneID 8668),3.16,0.58,0.82,-1.9,active
NUP54 (GeneID 53371),1.41,0.78,-0.47,-0.56,inactive
POLR2G (GeneID 5436),3.17,0.86,0.88,-0.08,active
PSMD4 (GeneID 5710),2.2,1.08,0.09,1.37,active
CBX7 (GeneID 23492),3.78,0.82,1.35,-0.28,active
CCNK (GeneID 8812),4.88,0.68,2.19,-1.27,active
RBBP8 (GeneID 5932),2.96,1,0.72,0.91,active
DDX19B (GeneID 11269),4.7,0.86,2.04,-0.01,active
AMDHD2 (GeneID 51005),3.42,0.88,1.06,0.05,active
KIR2DL1 (GeneID 3802),1.41,1.21,-0.5,2.22,inactive
NFYA (GeneID 4800),1.87,0.97,-0.14,0.68,active
LCE2A (GeneID 353139),5.91,0.77,2.9,-0.57,inactive
SERTAD1 (GeneID 29950),2.56,0.87,0.36,-0.01,active
POLR2I (GeneID 5438),3.54,0.88,1.15,0.08,active
RGS18 (GeneID 64407),0.97,1.12,-0.83,1.7,inactive
